The values that follow come from patent publication US20200399381A1 (I MAB BIOPHARMA US, published 2020).

No constants are given. Whether binding was seen depends on the method and setting. Some entries that bind do so weakly or less than the wild type.

Assay [1] addresses T1, human IFNAR-1 protein (form not stated) (human, UniProt P17181 28-436, limits assumed).
T1 construct: bispecific ELISA
T1 sequence (looked up): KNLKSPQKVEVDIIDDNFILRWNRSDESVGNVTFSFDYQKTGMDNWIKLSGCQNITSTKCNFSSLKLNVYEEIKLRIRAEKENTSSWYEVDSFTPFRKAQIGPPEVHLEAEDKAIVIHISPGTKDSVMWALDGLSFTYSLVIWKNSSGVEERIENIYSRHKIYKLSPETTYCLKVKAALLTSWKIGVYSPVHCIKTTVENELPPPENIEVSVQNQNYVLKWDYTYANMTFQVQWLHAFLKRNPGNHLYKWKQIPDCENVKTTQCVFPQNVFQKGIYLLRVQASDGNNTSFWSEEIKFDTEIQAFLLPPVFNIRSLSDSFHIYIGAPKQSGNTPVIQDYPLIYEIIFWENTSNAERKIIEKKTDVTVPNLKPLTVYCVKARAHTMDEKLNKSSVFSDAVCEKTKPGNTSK
Kind of assay: ELISA.

The target of assay [2] is T1, human IFNAR-1 protein (form not stated). Kind of assay: ELISA on human IFNAR-1 protein.

B1: 8G11 chimeric antibody (antibody, V domains shown)
VH: EVQLQQSGAELVKPGASVKLSCTGFGFNIKDYYMHWVKQRAEQGLEWIGRIDPEDGETKYAPKFQGKATITADTSSNTAYLQVSSLTSEDTAVYYCARGGNFYVMDYWGQGTSVTVSS
VL: DIVMTQSQKFMSTSVGDRVSVTCKASQNVGTNVVWYQQKPGQSPKVLIYSASYRVSGVPDRFTGSGSGTDFTLIISNVQSEDLAEYFCQQKNNYPYTFGGGTKLEIK
notes: also called chimeric 8G11
In the case of B1, the binding entry in assay [1] and in assay [2] was “binds” each time.
